Among the data in PMC4381082 are binding values, retold here.

Assay [1] deals with T1, N-terminally FLAG-tagged SART3 (B0035.12) (C. elegans) (UniProt Q17430).
T1 sequence: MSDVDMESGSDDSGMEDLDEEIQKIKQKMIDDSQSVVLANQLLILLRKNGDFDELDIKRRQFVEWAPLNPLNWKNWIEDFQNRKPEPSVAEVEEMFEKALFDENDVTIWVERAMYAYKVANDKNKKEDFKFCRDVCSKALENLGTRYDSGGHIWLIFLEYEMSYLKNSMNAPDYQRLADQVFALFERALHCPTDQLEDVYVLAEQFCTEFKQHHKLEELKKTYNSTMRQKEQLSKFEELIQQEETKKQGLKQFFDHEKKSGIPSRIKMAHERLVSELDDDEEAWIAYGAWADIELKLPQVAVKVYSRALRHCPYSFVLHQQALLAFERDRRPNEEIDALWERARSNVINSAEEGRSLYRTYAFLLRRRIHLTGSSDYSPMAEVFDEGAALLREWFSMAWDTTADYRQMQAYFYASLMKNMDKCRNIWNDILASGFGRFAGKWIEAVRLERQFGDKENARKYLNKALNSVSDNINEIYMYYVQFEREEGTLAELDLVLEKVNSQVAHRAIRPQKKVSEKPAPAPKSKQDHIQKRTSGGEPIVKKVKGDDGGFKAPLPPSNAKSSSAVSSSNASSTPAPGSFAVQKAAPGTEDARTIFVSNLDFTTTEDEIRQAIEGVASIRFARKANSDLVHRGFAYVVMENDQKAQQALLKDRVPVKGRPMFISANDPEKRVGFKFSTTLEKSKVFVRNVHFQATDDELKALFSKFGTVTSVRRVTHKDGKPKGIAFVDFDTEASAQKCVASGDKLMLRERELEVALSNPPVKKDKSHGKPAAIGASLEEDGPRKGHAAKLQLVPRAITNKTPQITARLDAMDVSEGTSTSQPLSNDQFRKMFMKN
In words: affinity purification with mass spectrometry; anti-FLAG M2 magnetic beads on mixed stage worm lysate with FLAG/SART3 as bait; 30 mM HEPES/KOH pH 7.4, 100 mM KCl, 1.5 mM MgCl2, 0.1% Triton X-100; eluted with FLAG peptide; no RNase A.

Assay [2] has as its target T1, N-terminally FLAG-tagged SART3 (B0035.12) (C. elegans). Described as above. This is another data set of the same source.

Read-outs that look alike come from different tables or passages of the source. These are yes or no findings as the source states them, for the method shown. Binding seen in cells or lysates may run through a third protein. A yes stands for co-enrichment or nearness to the bait. Other partners may have been found. No binding means not detected with the bait. Tags and fused reporters may be left off the sequences shown.

For the molecule Lsm1, in assay [1], the binding result was “no binding”.

B1: SNR-6/Sm E (protein, UniProt Q9XTU6 1-90)
chain: MSTRKLNKVMVQPVNLIFRYLQNRTRVQIWLYEDVTHRLEGYIIGFDEFMNVVFDEAEEVNMKTKGRNKIGRILLKGDNITLIHAAQQEA
Turning to B1, the binding entry in assay [2] is given as “no binding”.
